Laboratory results: PubChem BioAssay AID686943 (Drosophila RNAi Screening Center, 2013)
Aim: 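Fly genes whose loss alters ERK activation after insulin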 (primary screen). System: Drosophila S2R+ haemocyte-like cells expressing YFP-tagged ERK (Rolled). Knock-down reagent: long dsRNA against Drosophila genes. Conditions: insulin stimulation versus unstimulated cells; dose and duration not given. Read-out: 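Antibody staining for doubly phosphorylated ERK divided by ERK-YFP signal, as plate z-scores, in insulin-treated and untreated cells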. Scale: replicate 1, z-score of dpERK with insulin and replicate 2, z-score of dpERK with insulin: higher = more active ERK per ERK-YFP after insulin.
In all, the deposit lists about 23,000 reagents; this is an unselected part of those with a known target gene and a result. 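Extra replicates exist only for a retested subset of genes; insulin dose and duration not given; both raised and lowered dpERK matter.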 A plus sign joins genes that one reagent is predicted to hit. Further read-outs or replicates are left out here. Not stated in the record: the amount of reagent, the time to read-out.

sfl [DRSC08828] | replicate 1, z-score of dpERK with insulin = 0.04; replicate 2, z-score of dpERK with insulin = 0.39
sfl [DRSC08830] | replicate 1, z-score of dpERK with insulin = 1.06; replicate 2, z-score of dpERK with insulin = 1.21
CG6283 [DRSC16009] | replicate 1, z-score of dpERK with insulin = -1.48; replicate 2, z-score of dpERK with insulin = -0.08
E(spl)m3-HLH [DRSC16694] | replicate 1, z-score of dpERK with insulin = -0.78; replicate 2, z-score of dpERK with insulin = -3.23
Iris [DRSC00663] | replicate 1, z-score of dpERK with insulin = -0.26; replicate 2, z-score of dpERK with insulin = 0.23
S-Lap4 [DRSC10957] | replicate 1, z-score of dpERK with insulin = -0.78; replicate 2, z-score of dpERK with insulin = 0.73
Su(P) [DRSC11291] | replicate 1, z-score of dpERK with insulin = -1.11; replicate 2, z-score of dpERK with insulin = 1.05
G6P [DRSC00414] | replicate 1, z-score of dpERK with insulin = -0.51; replicate 2, z-score of dpERK with insulin = -0.11
Spt5 [DRSC07556] | replicate 1, z-score of dpERK with insulin = 0.92; replicate 2, z-score of dpERK with insulin = 1.59
sev [DRSC20372] | replicate 1, z-score of dpERK with insulin = 0.28; replicate 2, z-score of dpERK with insulin = 0.06
prd [DRSC03597] | replicate 1, z-score of dpERK with insulin = 0.14; replicate 2, z-score of dpERK with insulin = 0.12
Snm1 [DRSC12130] | replicate 1, z-score of dpERK with insulin = 0.08; replicate 2, z-score of dpERK with insulin = -0.1
CG7763 [DRSC07043] | replicate 1, z-score of dpERK with insulin = -0.34; replicate 2, z-score of dpERK with insulin = 0.17
Npc2f [DRSC15980] | replicate 1, z-score of dpERK with insulin = 0.79; replicate 2, z-score of dpERK with insulin = -0.09
lncRNA:CR32658 [DRSC19402] | replicate 1, z-score of dpERK with insulin = -0.02; replicate 2, z-score of dpERK with insulin = 0.53
fray [DRSC16950] | replicate 1, z-score of dpERK with insulin = 0.88; replicate 2, z-score of dpERK with insulin = 0.46
Or69a [DRSC11243] | replicate 1, z-score of dpERK with insulin = 0.81; replicate 2, z-score of dpERK with insulin = 0.59
eEF1gamma [DRSC16659] | replicate 1, z-score of dpERK with insulin = -1.45; replicate 2, z-score of dpERK with insulin = 0
HemK2 + Snapin [DRSC00736] | replicate 1, z-score of dpERK with insulin = 0.63; replicate 2, z-score of dpERK with insulin = 1.35
HemK2 + Snapin [DRSC00737] | replicate 1, z-score of dpERK with insulin = -0.68; replicate 2, z-score of dpERK with insulin = -0.12
CG43307 [DRSC00893] | replicate 1, z-score of dpERK with insulin = 1; replicate 2, z-score of dpERK with insulin = -1.92
mahe [DRSC17755] | replicate 1, z-score of dpERK with insulin = -1.11; replicate 2, z-score of dpERK with insulin = -0.1
salm [DRSC03606] | replicate 1, z-score of dpERK with insulin = -0.09; replicate 2, z-score of dpERK with insulin = 0.3
lncRNA:yar [DRSC17679] | replicate 1, z-score of dpERK with insulin = 0.11; replicate 2, z-score of dpERK with insulin = -0.04
lncRNA:yar [DRSC21708] | replicate 1, z-score of dpERK with insulin = -0.72; replicate 2, z-score of dpERK with insulin = -0.1
CG32638 [DRSC18968] | replicate 1, z-score of dpERK with insulin = 1.15; replicate 2, z-score of dpERK with insulin = 0.89
P58IPK [DRSC16404] | replicate 1, z-score of dpERK with insulin = 0.06; replicate 2, z-score of dpERK with insulin = -0.45
CG18233 [DRSC10308] | replicate 1, z-score of dpERK with insulin = 0.59; replicate 2, z-score of dpERK with insulin = -0.81
Mnat9 [DRSC14325] | replicate 1, z-score of dpERK with insulin = -0.29; replicate 2, z-score of dpERK with insulin = -0.22
alpha-Est4 [DRSC12616] | replicate 1, z-score of dpERK with insulin = 0.54; replicate 2, z-score of dpERK with insulin = 0.56
CG13300 [DRSC09974] | replicate 1, z-score of dpERK with insulin = 0.26; replicate 2, z-score of dpERK with insulin = -4.12

Limited to “replicate 2, z-score of dpERK with insulin”, for 3 of the entries above:
HemK2 + Snapin [DRSC00736]: 1.35
HemK2 + Snapin [DRSC00737]: -0.12
CG43307 [DRSC00893]: -1.92
